PubChem BioAssay AID686943 | Drosophila RNAi Screening Center, 2013
Test: 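Knockdowns that increase or decrease active ERK after insulin receptor stimulation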 (primary screen). Cell system: Drosophila S2R+ haemocyte-like cells expressing YFP-tagged ERK (Rolled). Reagent: long dsRNA against Drosophila genes. Challenge: insulin stimulation versus unstimulated cells; dose and duration not given. Measured: 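Antibody staining for doubly phosphorylated ERK divided by ERK-YFP signal, as plate z-scores, in insulin-treated and untreated cells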. Direction: replicate 1, z-score of dpERK with insulin and replicate 2, z-score of dpERK with insulin: higher = more active ERK per ERK-YFP after insulin; replicate 1, z-score of dpERK under basal conditions: higher = more basal active ERK per ERK-YFP; replicate 1, z-score of ERK-YFP with insulin: higher = more YFP-tagged ERK signal.
The screen tested about 23,000 reagents; shown is a random part of those with a known target gene and a result. 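Extra replicates exist only for a retested subset of genes; insulin dose and duration not given; both raised and lowered dpERK matter.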 A plus sign joins genes that one reagent is predicted to hit. No sequences are given here. Not stated in the record: the amount of reagent, the time to read-out.

| gene | amplicon | replicate 1, z-score of dpERK with insulin | replicate 2, z-score of dpERK with insulin | replicate 1, z-score of dpERK under basal conditions | replicate 1, z-score of ERK-YFP with insulin |
| --- | --- | --- | --- | --- | --- |
| CG31917 + Tfb5 | DRSC02362 | 0.22 | 0.3 | -0.81 | 1.19 |
| CG31917 + Tfb5 | DRSC02363 | 1.59 | -0.62 | -0.09 | -4.8 |
| CG32452 | DRSC11581 | 0.83 | 0.82 | -0.85 | 0.18 |
| CG32452 | DRSC22250 | 0.64 | 0.27 | -1.09 | -0.27 |
| Ggamma1 (G protein gamma subunit 1) | DRSC07435 | 0.54 | 0.76 | 1.93 | -0.1 |
| Cyp4p2 (Cytochrome P450 4p2) | DRSC07373 | 0.46 | 0.89 | -0.95 | 0.13 |
| CG32816 | DRSC17337 | -0.31 | 0.11 | -0.83 | 0.66 |
| Pep (Protein on ecdysone puffs) | DRSC11252 | -0.6 | 0.04 | 0.06 | 0.97 |
| pns (pinstripe) | DRSC08598 | -0.68 | 0.04 | -0.47 | 0.39 |
| CG10920 | DRSC17765 | 0.07 | -0.08 | 0.27 | -0.66 |
| Hcf (Host cell factor) | DRSC17143 | -1.1 | -0.62 | -2.03 | 2.19 |
| Axn (Axin) | DRSC14120 | -1.54 | -2.86 | 0.66 | 0.07 |
| CG11630 | DRSC03696 | -1 | -0.55 | 0.06 | 0.73 |
| GstE6 (Glutathione S transferase E6) | DRSC06676 | 0.21 | 0.34 | -0.46 | 0.28 |
| mxt (mextli) | DRSC00551 | -0.11 | -0.7 | -0.07 | 0.71 |
| CG14420 | DRSC17917 | 2.5 | 2.41 | 0.66 | -2.88 |
| Tim10 + CG42497 | DRSC04664 | -0.84 | 1.52 | -0.41 | 0.82 |
| Vps25 (Vacuolar protein sorting 25) | DRSC06486 | 0 | -0.55 | -0.31 | 0 |
| RpS28b (Ribosomal protein S28b) | DRSC18258 | 0.01 | -2.1 | -0.32 | -3.62 |
| CG42685 | DRSC01971 | -0.36 | 0.02 | -1.08 | 0.82 |
| Gr2a (Gustatory receptor 2a) | DRSC18603 | -0.87 | 2.43 | 3.22 | 0.26 |
| CG15449 | DRSC20521 | 0.52 | 0.27 | -0.06 | 1.04 |
| tex | DRSC16517 | -0.78 | -0.71 | 1.58 | 1.44 |
| dUTPase (Deoxyuridine triphosphatase) | DRSC01998 | 0.34 | 0.39 | 0.31 | -0.16 |

Entries above whose target name begins with T or t:
| gene | amplicon | replicate 1, z-score of dpERK with insulin | replicate 2, z-score of dpERK with insulin | replicate 1, z-score of dpERK under basal conditions | replicate 1, z-score of ERK-YFP with insulin |
| --- | --- | --- | --- | --- | --- |
| Tim10 + CG42497 | DRSC04664 | -0.84 | 1.52 | -0.41 | 0.82 |
| tex | DRSC16517 | -0.78 | -0.71 | 1.58 | 1.44 |

Additional entries follow.
| gene | amplicon | replicate 1, z-score of dpERK with insulin | replicate 2, z-score of dpERK with insulin | replicate 1, z-score of dpERK under basal conditions | replicate 1, z-score of ERK-YFP with insulin |
| --- | --- | --- | --- | --- | --- |
| Obp46a (Odorant-binding protein 46a) | DRSC06220 | 0.12 | -0.53 | -0.4 | 0.22 |
| Dad1 (Defender against apoptotic cell death 1) | DRSC02263 | -0.27 | -0.89 | -0.67 | 1.08 |
| Bace (beta-site APP-cleaving enzyme) | DRSC02197 | -1.55 | -1.21 | 1.58 | -0.21 |
| CG12877 | DRSC14565 | 0.16 | 0.04 | -0.09 | 0.67 |
| CG34194 | DRSC05666 | 0.26 | 0.8 | -0.53 | -0.86 |
| Rpt5 (Regulatory particle triple-A ATPase 5) | DRSC16842 | -5.88 | -3 | -4.02 | 2.65 |
| CG8960 | DRSC08612 | -0.49 | -0.06 | -1.13 | -0.47 |
| MCPH1 (Microcephalin) | DRSC06309 | -0.04 | -0.13 | 0.27 | 1.19 |
| MCPH1 (Microcephalin) | DRSC07308 | 0.1 | 0.64 | -0.58 | 0.34 |
| MCPH1 (Microcephalin) | DRSC22536 | -0.03 | -0.61 | -0.24 | 0.32 |
| CG13949 | DRSC00367 | 0.28 | 0.08 | 0.11 | -0.23 |
| CG13131 | DRSC02227 | -0.01 | 0.68 | 0.41 | -0.55 |
| Tgi (Tondu-domain-containing Growth Inhibitor) | DRSC09793 | 1.02 | -0.21 | 0.59 | 0.08 |
| Tgi (Tondu-domain-containing Growth Inhibitor) | DRSC09794 | 0.39 | 0.22 | 0.68 | 0.83 |
| CG32507 | DRSC20421 | -0.3 | 1.02 | 1.08 | 0.31 |
| Tsf2 (Transferrin 2) | DRSC09751 | -1.2 | -0.31 | 0.34 | 0.88 |
| lectin-46Ca | DRSC06612 | -0.13 | 0.51 | -0.09 | 0.04 |
| CG18545 | DRSC15343 | -0.26 | 0.27 | 0.6 | 0.65 |
| Tlk (Tousled-like kinase) | DRSC17281 | -0.32 | -1.18 | 0.35 | 0.17 |
| Tlk (Tousled-like kinase) | DRSC17731 | 0.08 | 0.28 | -0.92 | -0.83 |
| Tlk (Tousled-like kinase) | DRSC17835 | -3.82 | -3.66 | -0.79 | -0.82 |
| Tlk (Tousled-like kinase) | DRSC22924 | -0.11 | 0.74 | 0.94 | -1.59 |
| Tlk (Tousled-like kinase) | DRSC22926 | 0.58 | -0.33 | 1.89 | -3.32 |
| Tlk (Tousled-like kinase) | DRSC22938 | 0.57 | -0.29 | 0.05 | -0.02 |
| CG3036 | DRSC00260 | 0.52 | 0.65 | 0.6 | 0.47 |
| CG3036 | DRSC00562 | 0.25 | -0.45 | 0.3 | 0.97 |
| Acsx1L (Acyl-CoA synthetase X1 L) | DRSC16014 | -0.84 | 4.92 | -0.69 | 0.79 |
| gammaSnap2 (gamma Soluble NSF attachment protein 2) | DRSC15992 | 0 | 0.67 | 1 | 0.19 |
| Eps-15 (Epidermal growth factor receptor pathway substrate clone 15) | DRSC04288 | 0.21 | -0.24 | -0.93 | 0.9 |
| Tnks (tankyrase) | DRSC14154 | 0 | 1.56 | 0.58 | 0 |
| CG2616 | DRSC15440 | -0.36 | 0.27 | -0.34 | 0.45 |
| GluRS-m (Glutamyl-tRNA synthetase, mitochondrial) | DRSC10431 | 0.75 | -1.15 | 0.64 | 0.18 |
| CG42268 | DRSC10171 | 0.99 | 2.85 | 2.03 | -3.76 |
| CG42268 | DRSC10702 | 0.52 | -0.03 | -0.53 | 0.86 |
| CG42268 | DRSC21797 | 1.34 | 0.23 | 0.37 | 0.7 |
